PubChem BioAssay AID1259254 – NCATS | 2017

Test: 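Genome-wide screen for genes that prevent DNA re-replication in cancer cells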 (primary screen)
Cells: human HCT116 colorectal cancer cells
Reagents: single siRNA against human genes
Timing: 3 days
Detection: 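Imaged Hoechst DNA stain sorts each cell into a cycle phase by DNA amount; per plate, G2 fraction set to 0% for non-targeting and 100% for GMNN siRNA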
Reading the numbers: G2 robust z-score and G2 cells, % of GMNN control: higher = more G2 cells, more excess DNA replication; raw share of cells in G2: higher = larger share of cells with G2 DNA content
Rule for the call: 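Active siRNAs have a G2 robust z of 5 or more median absolute deviations over the median, which in these data means about 38% or higher of GMNN control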
Here is one part, drawn at random, of about 59,000 reagents. About 1,550 of them (2.6%) count as active. 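G2 share is only a proxy for re-replication; each gene was hit by three separate siRNAs, and active genes were retested.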 Raw values are not corrected between plates. Reagents against one gene are numbered here. Not stated in the record: the amount of reagent.

gene | siRNA no. | G2 robust z-score | G2 cells, % of GMNN control | raw share of cells in G2 (%) | Outcome
REPS2 | 1 | -0.657 | -1.65 | 3.79 | inactive
REPS2 | 2 | 0.615 | 7.3 | 7.32 | inactive
REPS2 | 3 | -0.0301 | 2.76 | 6.23 | inactive
NOTO | 1 | 0.232 | 4.6 | 5.96 | inactive
NOTO | 2 | 0.444 | 6.09 | 7.34 | inactive
NOTO | 3 | 5.48 | 41.5 | 23.8 | active
ABCG1 | 1 | 1.11 | 10.8 | 6.87 | inactive
ABCG1 | 2 | -1.19 | -5.42 | 3.15 | inactive
ABCG1 | 3 | -0.15 | 1.91 | 5.53 | inactive
MIA | 1 | 4.03 | 31.3 | 19 | inactive
MIA | 2 | -0.379 | 0.303 | 4.01 | inactive
MIA | 3 | -0.488 | -0.469 | 3.18 | inactive
SUFU | 1 | -0.975 | -3.89 | 4.19 | inactive
SUFU | 2 | 0.124 | 3.84 | 5.66 | inactive
SUFU | 3 | 1.27 | 11.9 | 8.38 | inactive
CSTB | 1 | 0.597 | 7.17 | 7.61 | inactive
CSTB | 2 | -0.804 | -2.69 | 4 | inactive
CSTB | 3 | -0.384 | 0.267 | 4.19 | inactive
DMRTC2 | 1 | -0.0181 | 2.84 | 5.35 | inactive
DMRTC2 | 2 | 0.521 | 6.64 | 8.39 | inactive
DMRTC2 | 3 | 1.51 | 13.6 | 9.16 | inactive
PGRMC2 | 1 | 0.327 | 5.27 | 7.98 | inactive
PGRMC2 | 2 | -0.649 | -1.6 | 5.85 | inactive
PGRMC2 | 3 | 0.599 | 7.18 | 6.16 | inactive
OR4D2 | 1 | 0.552 | 6.85 | 6.84 | inactive
OR4D2 | 2 | 1.81 | 15.7 | 8.01 | inactive
OR4D2 | 3 | 1.4 | 12.8 | 5.57 | inactive
OR1F1 | 1 | 4.98 | 38 | 21.1 | inactive
OR1F1 | 2 | -0.347 | 0.523 | 4.43 | inactive
OR1F1 | 3 | -0.31 | 0.785 | 3.64 | inactive
CLK1 | 1 | 4.03 | 31.3 | 15.9 | inactive
CLK1 | 2 | -0.0214 | 2.82 | 6.36 | inactive
CLK1 | 3 | 0.945 | 9.62 | 7.41 | inactive
CCDC171 | 1 | 0.755 | 8.28 | 6.58 | inactive
CCDC171 | 2 | -0.875 | -3.19 | 2.04 | inactive
CCDC171 | 3 | -0.545 | -0.869 | 2.92 | inactive
SIDT1 | 1 | 0.368 | 5.56 | 5.03 | inactive
SIDT1 | 2 | -0.793 | -2.61 | 2.67 | inactive
SIDT1 | 3 | -0.123 | 2.1 | 5.16 | inactive
DGKZ | 1 | -0.782 | -2.53 | 4.8 | inactive
DGKZ | 2 | -0.706 | -2 | 4.46 | inactive
DGKZ | 3 | 4.6 | 35.4 | 15 | inactive

Looked up above:
For “G2 robust z-score”, NOTO #2 has 0.444
DGKZ #1, raw share of cells in G2 (%) = 4.8
Result for MIA #3 in “G2 robust z-score”: -0.488
Entry for SUFU #3 in “raw share of cells in G2 (%)”: 8.38
DMRTC2 #2, Outcome = inactive
For “G2 cells, % of GMNN control”, SUFU #1 is entered as -3.89

The results go on.
gene | siRNA no. | G2 robust z-score | G2 cells, % of GMNN control | raw share of cells in G2 (%) | Outcome
TIMP3 | 1 | 3.49 | 27.5 | 15.3 | inactive
TIMP3 | 2 | 0.0211 | 3.12 | 5.59 | inactive
TIMP3 | 3 | -0.617 | -1.37 | 4.32 | inactive
PLEKHG2 | 1 | -0.22 | 1.42 | 5.2 | inactive
PLEKHG2 | 2 | -0.902 | -3.38 | 3.09 | inactive
PLEKHG2 | 3 | 1.68 | 14.8 | 6.61 | inactive
LOC729683 | 1 | 6.01 | 45.2 | 19.7 | active
LOC729683 | 2 | -0.493 | -0.504 | 3.89 | inactive
LOC729683 | 3 | 0.739 | 8.16 | 5.98 | inactive
ITPRID2 | 1 | 0.912 | 9.38 | 9.29 | inactive
ITPRID2 | 2 | -0.045 | 2.65 | 4.95 | inactive
ITPRID2 | 3 | -0.769 | -2.44 | 2.48 | inactive
NXPH4 | 1 | -0.141 | 1.98 | 5.76 | inactive
NXPH4 | 2 | -0.765 | -2.41 | 3.14 | inactive
NXPH4 | 3 | 4.68 | 35.9 | 16.6 | inactive
DXO | 1 | 0.105 | 3.71 | 7.04 | inactive
DXO | 2 | 0.742 | 8.19 | 7.09 | inactive
DXO | 3 | -1.28 | -6.03 | 1.16 | inactive
KIF15 | 1 | 1.06 | 10.4 | 8.69 | inactive
KIF15 | 2 | -0.403 | 0.131 | 4.49 | inactive
KIF15 | 3 | 7.01 | 52.3 | 29.4 | active
FKBP14 | 1 | 0.798 | 8.58 | 7.51 | inactive
FKBP14 | 2 | -1.24 | -5.72 | 3.92 | inactive
FKBP14 | 3 | 2.51 | 20.6 | 12.9 | inactive
SCTR | 1 | 0.896 | 9.27 | 9.16 | inactive
SCTR | 2 | 1.86 | 16.1 | 10.1 | inactive
SCTR | 3 | 0.187 | 4.28 | 4.58 | inactive
